This passage reports binding results from paper PMC6857044.

Chains of the proteins cited; added tags and fusions are not shown.
UniProt Q15796: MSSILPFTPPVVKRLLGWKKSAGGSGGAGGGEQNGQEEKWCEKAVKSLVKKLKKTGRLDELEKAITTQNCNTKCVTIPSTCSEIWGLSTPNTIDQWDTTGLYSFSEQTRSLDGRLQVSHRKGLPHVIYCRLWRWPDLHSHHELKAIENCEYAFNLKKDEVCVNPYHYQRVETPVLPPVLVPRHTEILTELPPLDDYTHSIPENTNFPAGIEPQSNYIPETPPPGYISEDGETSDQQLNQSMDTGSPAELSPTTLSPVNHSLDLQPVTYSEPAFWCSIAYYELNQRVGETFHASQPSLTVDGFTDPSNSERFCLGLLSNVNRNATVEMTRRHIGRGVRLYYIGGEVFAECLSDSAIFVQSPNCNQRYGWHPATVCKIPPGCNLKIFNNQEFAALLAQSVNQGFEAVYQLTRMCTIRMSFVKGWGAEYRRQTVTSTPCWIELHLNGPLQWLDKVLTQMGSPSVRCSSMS

The assay deals with p53 (human (endogenous in HK2)) (UniProt P04637). Briefly: co-IP; HK2 cells lysed in 1% NP-40; p53 antibody 2 h at 4 °C, captured on Protein A agarose beads, washed three times with 1% NP-40; Western blot with Smad2 antibody.

Results are given in words; binding and its absence hold for the method and conditions named. Binding seen in cells or lysates may run through a third protein. Some entries that bind do so weakly or less than the wild type.

For the substance Smad2 (from UniProt Q15796 1-467), the binding result is “binds”.
